From article PMC12603192

Amino acid sequences for entries named in this document (tags omitted). Residues count along the entry.
UniProt P36894, residues 24-532: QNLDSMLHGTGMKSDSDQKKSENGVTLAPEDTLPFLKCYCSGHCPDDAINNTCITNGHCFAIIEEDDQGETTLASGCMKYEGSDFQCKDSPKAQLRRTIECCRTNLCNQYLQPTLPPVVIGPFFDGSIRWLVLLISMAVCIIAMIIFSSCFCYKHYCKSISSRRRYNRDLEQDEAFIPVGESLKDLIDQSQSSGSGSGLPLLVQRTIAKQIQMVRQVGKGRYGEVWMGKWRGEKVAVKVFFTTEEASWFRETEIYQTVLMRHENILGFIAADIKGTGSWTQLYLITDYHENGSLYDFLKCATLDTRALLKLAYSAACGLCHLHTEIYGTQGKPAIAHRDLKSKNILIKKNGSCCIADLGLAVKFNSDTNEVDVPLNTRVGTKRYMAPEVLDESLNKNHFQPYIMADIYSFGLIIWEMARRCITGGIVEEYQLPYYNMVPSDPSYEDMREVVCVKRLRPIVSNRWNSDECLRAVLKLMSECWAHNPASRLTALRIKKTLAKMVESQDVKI
UniProt Q15075: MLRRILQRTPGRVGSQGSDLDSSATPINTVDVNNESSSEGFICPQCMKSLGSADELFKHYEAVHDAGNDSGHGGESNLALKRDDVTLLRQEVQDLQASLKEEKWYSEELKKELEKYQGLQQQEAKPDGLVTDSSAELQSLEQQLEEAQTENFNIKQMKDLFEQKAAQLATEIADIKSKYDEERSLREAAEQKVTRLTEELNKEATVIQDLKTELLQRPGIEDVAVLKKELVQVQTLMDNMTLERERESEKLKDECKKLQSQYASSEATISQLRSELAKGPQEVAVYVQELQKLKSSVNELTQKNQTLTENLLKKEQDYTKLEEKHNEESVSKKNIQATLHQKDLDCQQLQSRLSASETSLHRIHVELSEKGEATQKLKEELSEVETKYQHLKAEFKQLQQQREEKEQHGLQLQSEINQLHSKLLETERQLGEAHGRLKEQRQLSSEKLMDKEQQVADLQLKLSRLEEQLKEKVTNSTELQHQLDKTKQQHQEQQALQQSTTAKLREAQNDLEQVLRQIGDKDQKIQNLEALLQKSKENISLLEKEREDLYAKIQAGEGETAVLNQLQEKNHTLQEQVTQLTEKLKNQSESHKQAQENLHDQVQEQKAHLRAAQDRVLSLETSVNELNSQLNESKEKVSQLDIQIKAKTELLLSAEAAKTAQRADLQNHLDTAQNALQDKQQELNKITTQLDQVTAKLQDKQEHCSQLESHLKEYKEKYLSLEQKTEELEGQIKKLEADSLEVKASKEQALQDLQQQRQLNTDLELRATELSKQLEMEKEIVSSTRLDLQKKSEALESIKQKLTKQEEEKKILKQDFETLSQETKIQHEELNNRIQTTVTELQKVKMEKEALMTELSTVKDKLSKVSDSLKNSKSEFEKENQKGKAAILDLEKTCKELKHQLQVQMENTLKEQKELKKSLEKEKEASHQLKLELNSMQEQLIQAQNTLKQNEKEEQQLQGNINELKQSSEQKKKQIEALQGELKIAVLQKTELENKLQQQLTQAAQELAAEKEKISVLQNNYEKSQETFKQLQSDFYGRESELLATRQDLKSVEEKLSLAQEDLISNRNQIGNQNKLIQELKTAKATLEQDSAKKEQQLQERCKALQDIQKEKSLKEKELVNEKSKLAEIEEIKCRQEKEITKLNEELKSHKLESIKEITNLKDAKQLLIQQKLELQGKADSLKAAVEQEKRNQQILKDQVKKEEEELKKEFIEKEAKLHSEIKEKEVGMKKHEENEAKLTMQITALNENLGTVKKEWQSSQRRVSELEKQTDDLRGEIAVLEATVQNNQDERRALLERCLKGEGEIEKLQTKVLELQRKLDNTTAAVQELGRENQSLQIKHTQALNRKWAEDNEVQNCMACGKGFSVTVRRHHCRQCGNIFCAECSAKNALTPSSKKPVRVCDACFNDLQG
UniProt P37173, residues 23-567: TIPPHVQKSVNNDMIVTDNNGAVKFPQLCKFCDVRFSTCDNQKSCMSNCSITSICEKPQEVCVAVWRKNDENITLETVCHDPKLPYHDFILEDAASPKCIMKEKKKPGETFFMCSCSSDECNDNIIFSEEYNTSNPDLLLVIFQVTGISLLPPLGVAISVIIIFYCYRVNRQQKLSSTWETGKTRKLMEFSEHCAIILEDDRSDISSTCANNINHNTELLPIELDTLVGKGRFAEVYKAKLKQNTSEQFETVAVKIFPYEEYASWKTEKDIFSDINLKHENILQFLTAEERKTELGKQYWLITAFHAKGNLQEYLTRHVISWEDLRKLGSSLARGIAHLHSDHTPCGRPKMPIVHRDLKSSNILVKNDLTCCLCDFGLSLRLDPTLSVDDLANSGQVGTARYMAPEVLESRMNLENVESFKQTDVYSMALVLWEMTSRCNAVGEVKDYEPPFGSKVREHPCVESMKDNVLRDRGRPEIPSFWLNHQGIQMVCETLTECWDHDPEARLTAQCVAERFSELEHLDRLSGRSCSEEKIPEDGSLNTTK
UniProt P63010: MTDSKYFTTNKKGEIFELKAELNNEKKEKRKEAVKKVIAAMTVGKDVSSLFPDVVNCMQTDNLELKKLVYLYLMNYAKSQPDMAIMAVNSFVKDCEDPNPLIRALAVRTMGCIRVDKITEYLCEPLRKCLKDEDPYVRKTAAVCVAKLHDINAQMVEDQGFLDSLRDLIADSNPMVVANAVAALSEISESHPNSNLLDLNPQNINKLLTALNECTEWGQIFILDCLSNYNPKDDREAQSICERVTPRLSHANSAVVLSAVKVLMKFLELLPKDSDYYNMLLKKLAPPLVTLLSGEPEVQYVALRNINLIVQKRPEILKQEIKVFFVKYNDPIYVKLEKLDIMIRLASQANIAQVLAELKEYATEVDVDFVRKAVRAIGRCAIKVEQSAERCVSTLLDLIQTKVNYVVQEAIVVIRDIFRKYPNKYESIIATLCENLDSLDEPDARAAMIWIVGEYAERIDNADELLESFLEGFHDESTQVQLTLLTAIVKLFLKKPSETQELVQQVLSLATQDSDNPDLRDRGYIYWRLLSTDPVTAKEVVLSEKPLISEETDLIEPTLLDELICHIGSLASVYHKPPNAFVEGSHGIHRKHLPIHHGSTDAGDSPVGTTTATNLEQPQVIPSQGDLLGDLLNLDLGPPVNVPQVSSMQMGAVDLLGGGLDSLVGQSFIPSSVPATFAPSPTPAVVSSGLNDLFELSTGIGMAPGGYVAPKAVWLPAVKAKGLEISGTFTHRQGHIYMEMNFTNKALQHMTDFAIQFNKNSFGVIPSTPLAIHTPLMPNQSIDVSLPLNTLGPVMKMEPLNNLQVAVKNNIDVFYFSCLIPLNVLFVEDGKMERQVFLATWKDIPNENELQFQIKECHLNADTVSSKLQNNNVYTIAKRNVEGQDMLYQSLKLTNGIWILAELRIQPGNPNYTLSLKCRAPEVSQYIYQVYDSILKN

B1: endogenous ALK5 (receptor, UniProt P36897 34-503)
chain: LQCFCHLCTKDNFTCVTDGLCFVSVTETTDKVIHNSMCIAEIDLIPRDRPFVCAPSSKTGSVTTTYCCNQDHCNKIELPTTVKSSPGLGPVELAAVIAGPVCFVCISLMLMVYICHNRTVIHHRVPNEEDPSLDRPFISEGTTLKDLIYDMTTSGSGSGLPLLVQRTIARTIVLQESIGKGRFGEVWRGKWRGEEVAVKIFSSREERSWFREAEIYQTVMLRHENILGFIAADNKDNGTWTQLWLVSDYHEHGSLFDYLNRYTVTVEGMIKLALSTASGLAHLHMEIVGTQGKPAIAHRDLKSKNILVKKNGTCCIADLGLAVRHDSATDTIDIAPNHRVGTKRYMAPEVLDDSINMKHFESFKRADIYAMGLVFWEIARRCSIGGIHEDYQLPYYDLVPSDPSVEEMRKVVCEQKLRPNIPNRWQSCEALRVMAKIMRECWYANGAARLTALRIKKTLSQLSQQEGIKM

Assays:
[1] = molecular target: T1, HA-MARCH2 stably expressed in A549 cells (human) (UniProt Q9P0N8); assay: affinity purification with mass spectrometry; as a1, but cells not treated with TGF-β
T1 sequence: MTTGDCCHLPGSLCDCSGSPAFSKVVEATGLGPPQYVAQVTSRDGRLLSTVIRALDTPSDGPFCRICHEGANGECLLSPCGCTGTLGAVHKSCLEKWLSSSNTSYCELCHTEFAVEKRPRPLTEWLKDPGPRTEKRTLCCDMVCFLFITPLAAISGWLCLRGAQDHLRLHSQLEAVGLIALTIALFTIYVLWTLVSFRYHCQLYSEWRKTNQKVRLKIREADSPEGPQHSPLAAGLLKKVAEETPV

[2] = molecular target: T1, HA-MARCH2 stably expressed in A549 cells (human); assay: affinity purification with mass spectrometry; HA-MARCH2-interacting proteins isolated from A549 cells stably expressing HA-MARCH2, TGF-β-treated; gel bands, in-gel trypsin digestion, LC-MS/MS

Molecule	binding [1]	binding [2]
BMP receptor type 1 A (from UniProt P36894 24-532)	no binding (only cells without TGF-β treatment)	binds
EEA1 (from UniProt Q15075 1-1411)	–	binds
endogenous TGF-β type II receptor (from UniProt P37173 23-567)	no binding (only cells without TGF-β treatment)	binds
β subunit of the AP-2 complex (from UniProt P63010 1-937)	–	binds
B1	no binding (only cells without TGF-β treatment)	binds

These are yes or no findings as the source states them, for the method shown. In cells and extracts the contact can be indirect. These calls come from enrichment with a bait or labelling near it, and not all partners need be listed. For some assays here: A no says only that the protein was not detected with the bait. Where a sequence is shown, tags or fusion partners need not be part of it.
